This is one part of the list.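 How the source made its calls: active = dose-dependent thermal stabilisation significant by F-test of dose-response against flat model at 10% FDR; inactive = not significant.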
What follows are targets tested with Nc1nc2c(ncn2[C@@H]2O[C@H](COP(=O)(O)OP(=O)(O)OP(=O)(O)O)[C@@H](O)[C@H]2O)c(=O)[nH]1 (assay: dose-dependent thermal stabilisation call (2D-TPP, DLPTP, 10% FDR) (binary (1 = stabilised)); higher = stabilised by the compound). Conditions: system: Jurkat gel-filtered lysate; concentration range 1-500 µM.
Procedure: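 2D thermal proteome profiling in gel-filtered Jurkat E6.1 lysate (2 mg/ml) treated with NaGTP (0, 1, 10, 100, 500 uM) for 10 min at room temperature, then heated 3 min at one of 12 temperatures (42-63.9 C). Soluble protein was quantified by TMT10 MS. The value is the DLPTP call of the paper: dose-dependent thermal stabilisation over all temperatures at 10% FDR (F-test of a dose-response against a flat model); one experiment, one call per tested protein.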

By UniProt entry, the sequences of proteins in these tests, tags left out. Where a name states a change or a piece, a line headed by the entry shows the natural chain unless it says otherwise.
UniProt P18433: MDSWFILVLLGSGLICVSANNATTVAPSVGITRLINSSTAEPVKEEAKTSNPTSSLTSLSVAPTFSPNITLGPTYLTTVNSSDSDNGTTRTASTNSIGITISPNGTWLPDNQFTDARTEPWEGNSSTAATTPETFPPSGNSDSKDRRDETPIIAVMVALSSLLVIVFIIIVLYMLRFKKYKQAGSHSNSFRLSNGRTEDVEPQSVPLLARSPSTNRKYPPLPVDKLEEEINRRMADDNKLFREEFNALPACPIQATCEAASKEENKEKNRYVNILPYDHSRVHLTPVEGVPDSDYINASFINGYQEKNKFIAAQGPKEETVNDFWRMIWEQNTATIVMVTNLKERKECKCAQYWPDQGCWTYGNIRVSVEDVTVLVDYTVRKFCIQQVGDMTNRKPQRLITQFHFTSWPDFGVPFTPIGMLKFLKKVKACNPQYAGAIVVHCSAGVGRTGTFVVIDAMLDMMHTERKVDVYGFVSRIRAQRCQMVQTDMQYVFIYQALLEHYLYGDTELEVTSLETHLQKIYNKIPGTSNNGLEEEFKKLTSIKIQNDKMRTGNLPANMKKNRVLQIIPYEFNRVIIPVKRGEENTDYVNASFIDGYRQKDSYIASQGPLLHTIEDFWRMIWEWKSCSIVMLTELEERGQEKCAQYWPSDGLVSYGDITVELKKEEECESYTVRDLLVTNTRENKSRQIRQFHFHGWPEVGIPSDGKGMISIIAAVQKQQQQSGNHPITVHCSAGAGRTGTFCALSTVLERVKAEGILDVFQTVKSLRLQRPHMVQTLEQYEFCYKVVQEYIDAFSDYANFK
UniProt Q04759: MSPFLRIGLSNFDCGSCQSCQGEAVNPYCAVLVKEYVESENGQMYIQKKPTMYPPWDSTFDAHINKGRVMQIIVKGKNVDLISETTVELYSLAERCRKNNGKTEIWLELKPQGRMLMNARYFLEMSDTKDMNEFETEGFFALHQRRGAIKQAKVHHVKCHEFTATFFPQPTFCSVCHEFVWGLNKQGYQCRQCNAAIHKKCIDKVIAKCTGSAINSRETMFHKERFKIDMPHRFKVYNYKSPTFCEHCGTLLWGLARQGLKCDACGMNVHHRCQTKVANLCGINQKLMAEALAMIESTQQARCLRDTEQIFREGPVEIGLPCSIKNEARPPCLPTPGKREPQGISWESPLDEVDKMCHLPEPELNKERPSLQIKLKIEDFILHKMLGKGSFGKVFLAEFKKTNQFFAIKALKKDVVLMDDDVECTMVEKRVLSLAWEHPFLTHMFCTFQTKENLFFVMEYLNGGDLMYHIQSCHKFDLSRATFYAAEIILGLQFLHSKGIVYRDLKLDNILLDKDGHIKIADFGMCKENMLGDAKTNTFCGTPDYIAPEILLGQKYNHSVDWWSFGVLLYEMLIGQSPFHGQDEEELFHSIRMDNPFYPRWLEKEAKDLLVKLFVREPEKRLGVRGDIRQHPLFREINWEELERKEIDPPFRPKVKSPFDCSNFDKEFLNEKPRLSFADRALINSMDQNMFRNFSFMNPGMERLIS
UniProt Q5RL73: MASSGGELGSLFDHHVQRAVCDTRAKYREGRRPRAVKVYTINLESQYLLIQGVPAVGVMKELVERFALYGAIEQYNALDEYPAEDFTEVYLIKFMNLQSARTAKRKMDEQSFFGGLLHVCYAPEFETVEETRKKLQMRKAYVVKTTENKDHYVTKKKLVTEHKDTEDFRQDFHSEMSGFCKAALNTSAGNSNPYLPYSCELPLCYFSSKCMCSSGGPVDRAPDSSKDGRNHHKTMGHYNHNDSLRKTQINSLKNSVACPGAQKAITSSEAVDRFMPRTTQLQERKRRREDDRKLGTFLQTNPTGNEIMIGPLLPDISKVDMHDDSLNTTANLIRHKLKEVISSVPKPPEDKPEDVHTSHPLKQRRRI
UniProt Q9Y3T6: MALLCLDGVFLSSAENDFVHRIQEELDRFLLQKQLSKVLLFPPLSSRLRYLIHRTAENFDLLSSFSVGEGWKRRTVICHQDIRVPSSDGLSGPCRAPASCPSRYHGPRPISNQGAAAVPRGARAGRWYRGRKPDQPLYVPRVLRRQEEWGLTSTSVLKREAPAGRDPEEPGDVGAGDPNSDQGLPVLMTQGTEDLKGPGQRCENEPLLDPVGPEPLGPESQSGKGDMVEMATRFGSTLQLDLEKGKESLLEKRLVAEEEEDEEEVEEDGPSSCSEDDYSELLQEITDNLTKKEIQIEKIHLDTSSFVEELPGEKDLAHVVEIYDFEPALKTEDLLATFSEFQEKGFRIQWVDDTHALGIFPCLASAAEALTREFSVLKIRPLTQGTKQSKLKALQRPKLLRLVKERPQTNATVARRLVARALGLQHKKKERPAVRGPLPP
UniProt O60678: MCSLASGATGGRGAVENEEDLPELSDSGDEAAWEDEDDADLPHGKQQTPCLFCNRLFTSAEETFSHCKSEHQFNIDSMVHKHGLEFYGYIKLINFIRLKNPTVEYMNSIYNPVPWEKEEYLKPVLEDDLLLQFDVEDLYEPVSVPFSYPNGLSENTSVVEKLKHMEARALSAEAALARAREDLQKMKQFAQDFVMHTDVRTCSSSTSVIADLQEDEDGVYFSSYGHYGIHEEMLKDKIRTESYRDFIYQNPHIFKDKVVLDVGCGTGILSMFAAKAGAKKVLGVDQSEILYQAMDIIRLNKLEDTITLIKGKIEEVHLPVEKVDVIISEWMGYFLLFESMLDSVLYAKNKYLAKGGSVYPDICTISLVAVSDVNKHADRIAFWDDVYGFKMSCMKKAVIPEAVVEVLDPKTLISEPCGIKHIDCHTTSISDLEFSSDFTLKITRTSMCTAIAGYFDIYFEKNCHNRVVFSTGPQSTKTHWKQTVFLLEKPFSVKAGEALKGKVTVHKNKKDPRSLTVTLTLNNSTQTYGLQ
UniProt Q92530: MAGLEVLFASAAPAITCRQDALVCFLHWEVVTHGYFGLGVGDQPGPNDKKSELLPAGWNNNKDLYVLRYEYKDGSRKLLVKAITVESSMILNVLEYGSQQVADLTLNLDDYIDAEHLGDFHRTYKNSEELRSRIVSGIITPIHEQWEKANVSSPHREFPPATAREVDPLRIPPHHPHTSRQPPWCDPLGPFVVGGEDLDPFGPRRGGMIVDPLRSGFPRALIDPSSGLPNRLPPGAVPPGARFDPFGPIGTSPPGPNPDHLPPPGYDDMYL
UniProt P43487, whole entry: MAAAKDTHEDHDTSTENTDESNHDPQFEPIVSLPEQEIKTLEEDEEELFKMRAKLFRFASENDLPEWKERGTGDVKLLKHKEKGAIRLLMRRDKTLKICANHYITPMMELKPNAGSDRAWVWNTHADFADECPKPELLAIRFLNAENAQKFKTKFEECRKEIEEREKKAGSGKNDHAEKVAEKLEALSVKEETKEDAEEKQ
UniProt Q13332: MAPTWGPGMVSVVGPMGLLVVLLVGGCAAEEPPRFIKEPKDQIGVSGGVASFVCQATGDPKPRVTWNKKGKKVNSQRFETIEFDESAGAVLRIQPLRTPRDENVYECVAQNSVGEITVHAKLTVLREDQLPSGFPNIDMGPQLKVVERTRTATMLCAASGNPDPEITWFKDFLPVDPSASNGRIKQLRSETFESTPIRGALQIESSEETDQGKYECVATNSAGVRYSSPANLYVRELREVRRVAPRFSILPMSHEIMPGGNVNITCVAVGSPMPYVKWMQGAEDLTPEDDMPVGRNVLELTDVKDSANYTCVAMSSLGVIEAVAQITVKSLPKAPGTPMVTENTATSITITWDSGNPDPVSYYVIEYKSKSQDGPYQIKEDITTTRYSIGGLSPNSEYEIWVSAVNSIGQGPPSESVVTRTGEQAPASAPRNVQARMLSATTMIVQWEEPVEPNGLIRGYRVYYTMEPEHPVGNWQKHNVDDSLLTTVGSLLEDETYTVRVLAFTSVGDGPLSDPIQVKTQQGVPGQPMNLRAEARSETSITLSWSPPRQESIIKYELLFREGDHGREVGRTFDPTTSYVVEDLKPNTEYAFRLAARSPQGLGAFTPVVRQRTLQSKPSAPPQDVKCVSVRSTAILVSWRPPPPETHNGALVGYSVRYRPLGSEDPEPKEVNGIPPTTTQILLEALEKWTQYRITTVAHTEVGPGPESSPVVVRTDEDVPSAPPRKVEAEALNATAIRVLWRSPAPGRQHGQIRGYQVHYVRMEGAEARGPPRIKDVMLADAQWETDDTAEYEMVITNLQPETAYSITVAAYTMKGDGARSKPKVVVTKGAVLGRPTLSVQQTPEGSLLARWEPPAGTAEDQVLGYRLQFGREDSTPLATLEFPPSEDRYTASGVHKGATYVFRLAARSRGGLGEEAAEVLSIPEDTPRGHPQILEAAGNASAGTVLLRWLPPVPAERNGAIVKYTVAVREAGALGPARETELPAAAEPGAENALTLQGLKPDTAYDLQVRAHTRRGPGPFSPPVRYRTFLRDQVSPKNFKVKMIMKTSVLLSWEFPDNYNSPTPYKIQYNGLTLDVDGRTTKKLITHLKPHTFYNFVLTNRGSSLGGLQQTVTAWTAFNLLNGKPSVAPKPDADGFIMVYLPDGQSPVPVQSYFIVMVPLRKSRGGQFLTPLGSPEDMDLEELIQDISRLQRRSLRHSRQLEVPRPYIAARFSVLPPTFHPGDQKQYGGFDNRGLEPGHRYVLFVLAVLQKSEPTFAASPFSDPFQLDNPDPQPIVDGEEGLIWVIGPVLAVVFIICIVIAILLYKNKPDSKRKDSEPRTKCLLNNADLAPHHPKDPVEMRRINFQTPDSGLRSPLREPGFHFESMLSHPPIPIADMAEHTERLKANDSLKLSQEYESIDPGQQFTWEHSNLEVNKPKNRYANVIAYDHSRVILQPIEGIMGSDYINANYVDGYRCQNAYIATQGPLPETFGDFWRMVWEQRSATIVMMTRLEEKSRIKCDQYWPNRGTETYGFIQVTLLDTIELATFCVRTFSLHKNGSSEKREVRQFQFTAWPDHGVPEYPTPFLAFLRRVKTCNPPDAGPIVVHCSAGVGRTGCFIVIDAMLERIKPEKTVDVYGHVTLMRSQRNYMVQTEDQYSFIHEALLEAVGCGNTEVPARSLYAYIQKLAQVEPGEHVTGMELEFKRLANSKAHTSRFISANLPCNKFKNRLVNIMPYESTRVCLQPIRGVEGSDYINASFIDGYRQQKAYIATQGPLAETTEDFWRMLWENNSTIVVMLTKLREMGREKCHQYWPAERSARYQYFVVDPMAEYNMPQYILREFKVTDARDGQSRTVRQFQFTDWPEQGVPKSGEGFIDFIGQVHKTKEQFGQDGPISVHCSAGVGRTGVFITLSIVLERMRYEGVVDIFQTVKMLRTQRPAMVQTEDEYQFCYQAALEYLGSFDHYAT
UniProt Q9ULC3: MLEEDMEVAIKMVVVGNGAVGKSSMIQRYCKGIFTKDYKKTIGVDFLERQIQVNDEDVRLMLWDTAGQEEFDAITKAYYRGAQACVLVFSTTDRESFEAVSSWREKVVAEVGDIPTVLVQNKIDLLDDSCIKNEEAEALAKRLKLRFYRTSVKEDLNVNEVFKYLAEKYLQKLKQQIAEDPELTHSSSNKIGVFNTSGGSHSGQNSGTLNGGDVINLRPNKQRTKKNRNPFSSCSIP
UniProt P47224: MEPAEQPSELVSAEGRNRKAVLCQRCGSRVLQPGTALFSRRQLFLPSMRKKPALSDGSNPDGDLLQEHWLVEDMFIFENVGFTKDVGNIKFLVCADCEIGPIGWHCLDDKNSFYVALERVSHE
UniProt P28066: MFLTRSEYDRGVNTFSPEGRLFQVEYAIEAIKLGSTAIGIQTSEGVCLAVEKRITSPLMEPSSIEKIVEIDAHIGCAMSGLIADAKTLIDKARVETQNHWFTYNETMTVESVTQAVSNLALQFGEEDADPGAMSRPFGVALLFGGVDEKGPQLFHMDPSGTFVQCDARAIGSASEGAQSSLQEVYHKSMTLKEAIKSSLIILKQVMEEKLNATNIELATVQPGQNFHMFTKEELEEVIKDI
UniProt O75884: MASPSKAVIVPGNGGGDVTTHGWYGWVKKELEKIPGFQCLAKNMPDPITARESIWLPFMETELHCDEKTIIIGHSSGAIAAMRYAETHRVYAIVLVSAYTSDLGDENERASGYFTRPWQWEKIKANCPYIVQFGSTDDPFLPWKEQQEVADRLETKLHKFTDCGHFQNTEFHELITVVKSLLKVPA
UniProt O43242, whole entry: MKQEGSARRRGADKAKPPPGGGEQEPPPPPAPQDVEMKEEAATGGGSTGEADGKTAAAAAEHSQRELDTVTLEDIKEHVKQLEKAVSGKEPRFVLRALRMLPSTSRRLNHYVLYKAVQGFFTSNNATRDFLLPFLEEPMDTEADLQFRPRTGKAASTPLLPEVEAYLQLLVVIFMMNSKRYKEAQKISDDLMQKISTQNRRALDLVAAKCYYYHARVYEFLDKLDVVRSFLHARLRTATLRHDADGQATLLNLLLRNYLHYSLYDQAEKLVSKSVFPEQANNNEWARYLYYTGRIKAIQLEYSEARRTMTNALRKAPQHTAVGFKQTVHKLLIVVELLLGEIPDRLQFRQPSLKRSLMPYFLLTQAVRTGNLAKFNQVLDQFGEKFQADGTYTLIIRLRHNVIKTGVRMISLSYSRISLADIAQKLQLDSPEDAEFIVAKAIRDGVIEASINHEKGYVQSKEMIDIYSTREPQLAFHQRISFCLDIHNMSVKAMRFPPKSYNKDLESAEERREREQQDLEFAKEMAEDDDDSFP

Target	dose-dependent thermal stabilisation call
RAB11A (UniProt P62491)	active: 1
PTPRA (UniProt P18433)	inactive: 0
RAPGEF2 (UniProt Q9Y4G8)	inactive: 0
PRKCQ (UniProt Q04759)	active: 1
PUDP (UniProt Q08623)	inactive: 0
RBM48 (UniProt Q5RL73)	inactive: 0
R3HCC1 (UniProt Q9Y3T6)	inactive: 0
RBM15B (UniProt Q8NDT2)	inactive: 0
RALGAPA1 (UniProt Q6GYQ0)	active: 1
PRMT3 (UniProt O60678)	inactive: 0
PSMD14 (UniProt O00487)	inactive: 0
RCOR1 (UniProt Q9UKL0)	inactive: 0
PTRHD1 (UniProt Q6GMV3)	inactive: 0
RABEP2 (UniProt Q9H5N1)	inactive: 0
PSMF1 (UniProt Q92530)	inactive: 0
PRPF31 (UniProt Q8WWY3)	active: 1
RANBP1 (UniProt P43487)	inactive: 0
PRRC2C (UniProt Q9Y520)	inactive: 0
PRKCD (UniProt Q05655)	inactive: 0
RCOR3 (UniProt Q9P2K3)	inactive: 0

2 entries drawn at random from those above:
Target	dose-dependent thermal stabilisation call
PTRHD1 (UniProt Q6GMV3)	inactive: 0
RAB11A (UniProt P62491)	active: 1

The list continues:

Target	dose-dependent thermal stabilisation call
RAB1A (UniProt P62820)	active: 1
RABGAP1 (UniProt Q9Y3P9)	inactive: 0
RABGGTA (UniProt Q92696)	inactive: 0
PTPN11 (UniProt Q06124)	inactive: 0
PTPRS (UniProt Q13332)	inactive: 0
RAB23 (UniProt Q9ULC3)	active: 1
RAB5B (UniProt P61020)	inactive: 0
PTK2 (UniProt Q05397)	inactive: 0
RABIF (UniProt P47224)	inactive: 0
PSMA5 (UniProt P28066)	inactive: 0
RAB27A (UniProt P51159)	active: 1
PUS7L (UniProt Q9H0K6)	inactive: 0
RBBP9 (UniProt O75884)	inactive: 0
PTGR2 (UniProt Q8N8N7)	inactive: 0
PYGB (UniProt P11216)	inactive: 0
PTGR1 (UniProt Q14914)	active: 1
PSMD3 (UniProt O43242)	inactive: 0
RBPJ (UniProt Q06330)	inactive: 0
RABEP1 (UniProt Q15276)	inactive: 0
PRKCH (UniProt P24723)	active: 1

Source: the supplement of paper PMC7666118
